Test results published in patent publication US20080235826A1.
No constants are given. Whether binding was seen depends on the method and setting. Binding seen in cells or lysates may run through a third protein. Some binding calls cover weakened binding; strength is not graded here. Where a sequence is shown, tags or fusion partners need not be part of it. One block for each binder: values may come before it.

Amino acid sequences for entries named in this document (tags omitted).
UniProt P14713: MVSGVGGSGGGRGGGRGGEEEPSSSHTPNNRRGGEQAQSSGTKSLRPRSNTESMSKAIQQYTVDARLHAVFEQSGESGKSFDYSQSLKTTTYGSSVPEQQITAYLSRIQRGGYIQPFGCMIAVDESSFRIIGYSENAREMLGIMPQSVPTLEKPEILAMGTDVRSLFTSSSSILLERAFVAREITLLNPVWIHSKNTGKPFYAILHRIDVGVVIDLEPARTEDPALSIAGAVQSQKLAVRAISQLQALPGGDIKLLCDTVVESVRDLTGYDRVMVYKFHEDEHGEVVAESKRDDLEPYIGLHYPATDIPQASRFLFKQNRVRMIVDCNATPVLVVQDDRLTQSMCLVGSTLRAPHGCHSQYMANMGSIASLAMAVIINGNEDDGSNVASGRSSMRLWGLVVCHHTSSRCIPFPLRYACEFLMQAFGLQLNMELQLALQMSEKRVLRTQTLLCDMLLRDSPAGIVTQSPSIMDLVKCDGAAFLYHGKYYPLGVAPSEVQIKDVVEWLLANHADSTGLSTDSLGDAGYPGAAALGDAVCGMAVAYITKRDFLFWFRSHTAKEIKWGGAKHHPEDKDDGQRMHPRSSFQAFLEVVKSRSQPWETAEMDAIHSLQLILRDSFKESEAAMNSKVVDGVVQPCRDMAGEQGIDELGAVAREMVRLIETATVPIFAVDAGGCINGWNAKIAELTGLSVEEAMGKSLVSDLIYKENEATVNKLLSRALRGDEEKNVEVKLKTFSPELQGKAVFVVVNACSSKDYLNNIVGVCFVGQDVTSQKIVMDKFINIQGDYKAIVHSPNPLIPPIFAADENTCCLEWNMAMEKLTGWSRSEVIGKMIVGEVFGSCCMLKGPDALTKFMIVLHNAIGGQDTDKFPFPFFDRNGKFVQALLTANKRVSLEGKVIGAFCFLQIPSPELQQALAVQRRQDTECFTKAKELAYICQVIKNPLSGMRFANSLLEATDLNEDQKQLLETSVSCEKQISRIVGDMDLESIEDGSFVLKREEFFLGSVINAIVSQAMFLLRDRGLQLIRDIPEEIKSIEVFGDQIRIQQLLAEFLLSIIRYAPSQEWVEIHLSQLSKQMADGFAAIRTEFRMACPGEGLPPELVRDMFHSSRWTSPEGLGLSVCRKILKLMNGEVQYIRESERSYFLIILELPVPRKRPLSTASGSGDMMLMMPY

Experiments:
[1] = target: T1, PHYA apoprotein of Arabidopsis thaliana phytochrome A, in vitro translated, 35S-methionine labeled (Arabidopsis thaliana) (UniProt P14712); test: in vitro GST pull-down of 35S-labeled TnT protein on glutathione-sepharose beads, SDS-PAGE
T1 sequence (35S-labeled methionine, looked up): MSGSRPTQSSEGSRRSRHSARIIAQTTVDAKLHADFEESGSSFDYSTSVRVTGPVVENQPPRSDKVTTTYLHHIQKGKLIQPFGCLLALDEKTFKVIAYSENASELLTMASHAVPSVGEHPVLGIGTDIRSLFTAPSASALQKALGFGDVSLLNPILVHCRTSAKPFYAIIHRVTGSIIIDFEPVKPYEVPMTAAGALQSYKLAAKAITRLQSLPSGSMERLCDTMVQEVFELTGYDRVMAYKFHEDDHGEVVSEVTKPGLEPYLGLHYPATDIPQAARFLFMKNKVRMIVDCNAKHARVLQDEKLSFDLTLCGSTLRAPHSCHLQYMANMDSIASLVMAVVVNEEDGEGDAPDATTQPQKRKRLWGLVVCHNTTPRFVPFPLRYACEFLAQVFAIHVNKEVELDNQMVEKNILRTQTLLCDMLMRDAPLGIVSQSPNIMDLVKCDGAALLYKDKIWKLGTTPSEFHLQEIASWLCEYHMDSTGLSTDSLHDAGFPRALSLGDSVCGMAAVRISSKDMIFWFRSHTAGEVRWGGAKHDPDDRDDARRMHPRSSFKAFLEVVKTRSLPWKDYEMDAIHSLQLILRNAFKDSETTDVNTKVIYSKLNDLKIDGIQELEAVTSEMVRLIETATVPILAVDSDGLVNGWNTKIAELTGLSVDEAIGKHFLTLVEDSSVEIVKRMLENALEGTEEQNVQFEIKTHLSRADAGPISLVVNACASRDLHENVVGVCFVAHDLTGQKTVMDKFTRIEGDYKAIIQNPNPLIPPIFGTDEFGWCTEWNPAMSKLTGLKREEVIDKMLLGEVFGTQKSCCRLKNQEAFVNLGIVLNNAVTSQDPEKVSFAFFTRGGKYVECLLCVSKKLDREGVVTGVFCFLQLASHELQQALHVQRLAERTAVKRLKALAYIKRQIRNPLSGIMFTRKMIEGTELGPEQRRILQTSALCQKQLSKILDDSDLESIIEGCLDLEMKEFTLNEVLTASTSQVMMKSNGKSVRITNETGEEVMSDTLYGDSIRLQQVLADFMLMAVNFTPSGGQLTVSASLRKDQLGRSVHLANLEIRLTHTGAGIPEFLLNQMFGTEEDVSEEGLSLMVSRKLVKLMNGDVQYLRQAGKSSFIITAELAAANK

[2] = target: PHYB apoprotein of Arabidopsis thaliana phytochrome B, in vitro translated, 35S-methionine labeled (Arabidopsis thaliana) (UniProt P14713); test: as above
[3] = target: T1, PHYA apoprotein of Arabidopsis thaliana phytochrome A, in vitro translated, 35S-methionine labeled (Arabidopsis thaliana); test: GST pull-down with 35S-labeled in vitro translated phytochrome
[4] = target: PHYB apoprotein of Arabidopsis thaliana phytochrome B, in vitro translated, 35S-methionine labeled (Arabidopsis thaliana) (UniProt P14713); test: as above

B1: GST-PAPP5 fusion protein (glutathione-S-transferase fused to full-length PAPP5) (enzyme, not shown: a dimerising Fc or GST)
chain: METKNENSDVSRAEEFKSQANEAFKGHKYSSAIDLYTKAIELNSNNAVYWANRAFAHTKLEEYGSAIQDASKAIEVDSRYSKGYYRRGAAYLAMGKFKDALKDFQQVKRLSPNDPDATRKLKECEKAVMKLKFEEAISVPVSERRSVAESIDFHTIEVEPQYSGARIEGEEVTLDFVKTMMEDFKNQKTLHKRYAYQIVLQTRQILLALPSLVDISVPHGKHITVCGDVHGQFYDLLNIFELNGLPSEENPYLFNGDFVDRGSFSVEIILTLFAFKCMCPSSIYLARGNHESKSMNKIYGFEGEVRSKLSEKFVDLFAEVFCYLPLAHVINGKVFVVHGGLFSVDGVKLSDIRAIDRFCEPPEEGLMCELLWSDPQPLPGRGPSKRGVGLSFGGDVTKRFLQDNNLDLLVRSHEVKDEGYEVEHDGKLITVFSAPNYCDQMGNKGAFIRFEAPDMKPNIVTFSAVPHPDVKPMAYANNFLRMFN
binding [1]: binds
binding [2]: binds

binding [3]: binds
binding [4]: binds
B2: GST-TPR (fusion protein of GST and the TPR domain of PAPP5, amino acids 1-138 of SEQ ID NO: 4) (protein, not shown: a dimerising Fc or GST)
chain: METKNENSDVSRAEEFKSQANEAFKGHKYSSAIDLYTKAIELNSNNAVYWANRAFAHTKLEEYGSAIQDASKAIEVDSRYSKGYYRRGAAYLAMGKFKDALKDFQQVKRLSPNDPDATRKLKECEKAVMKLKFEEAIS
